Results: article doi:10.1101/2020.11.05.369959
Results are given in words; binding and its absence hold for the method and conditions named. Binding seen in cells or lysates may run through a third protein. Here binding means that the protein was enriched with, or labelled near, the bait; the list need not be complete.

Protein sequences, listed by entry. Tags and fused reporters are not part of them.
UniProt Q9C0K0: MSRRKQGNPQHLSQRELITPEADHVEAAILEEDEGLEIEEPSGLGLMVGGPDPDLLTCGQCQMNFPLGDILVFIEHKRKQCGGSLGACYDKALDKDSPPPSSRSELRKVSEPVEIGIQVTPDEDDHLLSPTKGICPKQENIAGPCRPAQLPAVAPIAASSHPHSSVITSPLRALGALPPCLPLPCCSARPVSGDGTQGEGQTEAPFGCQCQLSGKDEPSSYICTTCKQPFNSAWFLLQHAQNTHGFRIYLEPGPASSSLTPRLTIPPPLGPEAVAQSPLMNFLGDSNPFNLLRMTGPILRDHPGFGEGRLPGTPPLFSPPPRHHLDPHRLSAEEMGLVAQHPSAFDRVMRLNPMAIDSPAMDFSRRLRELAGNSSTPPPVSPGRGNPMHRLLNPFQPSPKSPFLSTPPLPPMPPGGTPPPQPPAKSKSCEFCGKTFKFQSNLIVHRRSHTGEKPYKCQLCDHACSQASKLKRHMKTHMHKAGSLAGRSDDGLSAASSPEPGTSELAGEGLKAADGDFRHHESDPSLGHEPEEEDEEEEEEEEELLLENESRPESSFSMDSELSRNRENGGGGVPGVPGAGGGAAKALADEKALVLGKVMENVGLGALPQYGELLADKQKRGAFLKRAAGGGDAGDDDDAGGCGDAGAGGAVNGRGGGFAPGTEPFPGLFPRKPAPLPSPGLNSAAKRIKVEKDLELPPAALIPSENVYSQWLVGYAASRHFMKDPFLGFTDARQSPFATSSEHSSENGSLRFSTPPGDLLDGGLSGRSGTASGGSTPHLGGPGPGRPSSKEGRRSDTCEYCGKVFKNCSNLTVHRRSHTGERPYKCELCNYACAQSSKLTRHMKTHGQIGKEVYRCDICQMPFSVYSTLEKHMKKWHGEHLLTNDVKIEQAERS
UniProt Q16637: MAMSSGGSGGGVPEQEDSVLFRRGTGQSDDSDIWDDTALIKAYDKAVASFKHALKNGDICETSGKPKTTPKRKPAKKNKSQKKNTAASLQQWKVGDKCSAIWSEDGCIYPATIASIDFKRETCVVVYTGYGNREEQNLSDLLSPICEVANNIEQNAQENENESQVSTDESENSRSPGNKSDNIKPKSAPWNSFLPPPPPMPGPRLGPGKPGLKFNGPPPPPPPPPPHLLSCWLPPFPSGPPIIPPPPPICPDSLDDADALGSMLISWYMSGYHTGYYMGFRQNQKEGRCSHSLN
UniProt Q00534: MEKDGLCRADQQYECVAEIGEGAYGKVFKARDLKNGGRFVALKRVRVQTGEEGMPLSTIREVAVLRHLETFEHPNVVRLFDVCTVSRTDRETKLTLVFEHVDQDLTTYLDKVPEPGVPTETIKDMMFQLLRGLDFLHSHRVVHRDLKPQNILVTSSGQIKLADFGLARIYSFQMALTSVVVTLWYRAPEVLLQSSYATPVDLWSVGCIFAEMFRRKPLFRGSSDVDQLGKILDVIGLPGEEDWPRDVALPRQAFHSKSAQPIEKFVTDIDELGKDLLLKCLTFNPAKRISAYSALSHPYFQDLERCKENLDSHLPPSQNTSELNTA
UniProt Q13148: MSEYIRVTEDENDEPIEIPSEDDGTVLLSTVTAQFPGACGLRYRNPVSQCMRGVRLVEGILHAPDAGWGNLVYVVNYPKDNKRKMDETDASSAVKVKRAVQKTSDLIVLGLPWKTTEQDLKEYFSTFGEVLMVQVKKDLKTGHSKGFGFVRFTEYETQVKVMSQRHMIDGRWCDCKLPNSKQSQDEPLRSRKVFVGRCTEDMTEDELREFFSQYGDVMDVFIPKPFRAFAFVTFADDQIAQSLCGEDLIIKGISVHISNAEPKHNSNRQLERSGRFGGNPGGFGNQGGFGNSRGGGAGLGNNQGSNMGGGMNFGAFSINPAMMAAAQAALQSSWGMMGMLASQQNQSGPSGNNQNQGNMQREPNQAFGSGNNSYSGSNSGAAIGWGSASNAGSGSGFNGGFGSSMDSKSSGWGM
UniProt O00311: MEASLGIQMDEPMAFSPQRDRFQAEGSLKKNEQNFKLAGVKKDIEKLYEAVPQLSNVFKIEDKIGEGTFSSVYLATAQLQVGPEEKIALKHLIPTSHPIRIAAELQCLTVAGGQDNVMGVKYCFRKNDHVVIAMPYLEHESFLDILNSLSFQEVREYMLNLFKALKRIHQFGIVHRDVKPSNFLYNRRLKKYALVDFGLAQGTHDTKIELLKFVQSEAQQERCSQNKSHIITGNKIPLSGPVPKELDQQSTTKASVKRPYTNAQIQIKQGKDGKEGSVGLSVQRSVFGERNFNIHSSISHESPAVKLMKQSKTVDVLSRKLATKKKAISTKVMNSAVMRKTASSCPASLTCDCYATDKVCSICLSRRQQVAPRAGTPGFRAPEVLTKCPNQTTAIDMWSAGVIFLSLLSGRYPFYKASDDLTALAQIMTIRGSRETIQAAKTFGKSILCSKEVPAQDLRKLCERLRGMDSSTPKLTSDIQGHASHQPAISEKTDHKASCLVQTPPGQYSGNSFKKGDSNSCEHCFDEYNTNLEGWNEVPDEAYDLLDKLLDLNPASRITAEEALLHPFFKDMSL
UniProt P35637: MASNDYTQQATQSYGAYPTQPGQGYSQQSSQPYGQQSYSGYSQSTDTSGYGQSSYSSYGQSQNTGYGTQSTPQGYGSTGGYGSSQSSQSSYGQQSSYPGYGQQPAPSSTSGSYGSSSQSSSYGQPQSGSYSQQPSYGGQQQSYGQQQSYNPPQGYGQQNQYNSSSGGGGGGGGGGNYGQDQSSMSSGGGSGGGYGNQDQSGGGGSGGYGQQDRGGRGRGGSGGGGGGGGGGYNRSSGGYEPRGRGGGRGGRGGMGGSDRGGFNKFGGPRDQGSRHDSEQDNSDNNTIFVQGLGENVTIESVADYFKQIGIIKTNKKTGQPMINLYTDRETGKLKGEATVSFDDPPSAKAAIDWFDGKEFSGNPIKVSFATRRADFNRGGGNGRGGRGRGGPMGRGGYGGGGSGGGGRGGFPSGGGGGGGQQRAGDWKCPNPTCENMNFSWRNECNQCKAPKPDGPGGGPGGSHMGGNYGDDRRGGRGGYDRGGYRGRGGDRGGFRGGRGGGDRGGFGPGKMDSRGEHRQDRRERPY
UniProt P50750: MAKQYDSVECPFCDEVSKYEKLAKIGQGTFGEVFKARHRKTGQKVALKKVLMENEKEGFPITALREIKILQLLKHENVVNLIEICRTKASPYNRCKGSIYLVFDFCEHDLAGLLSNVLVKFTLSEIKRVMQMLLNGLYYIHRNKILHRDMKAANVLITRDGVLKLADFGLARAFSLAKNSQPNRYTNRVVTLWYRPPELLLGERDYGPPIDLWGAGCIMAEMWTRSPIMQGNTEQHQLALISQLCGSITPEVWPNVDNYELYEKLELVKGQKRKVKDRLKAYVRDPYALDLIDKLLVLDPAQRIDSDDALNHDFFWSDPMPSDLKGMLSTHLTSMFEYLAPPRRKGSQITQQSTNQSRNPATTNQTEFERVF
UniProt P63208: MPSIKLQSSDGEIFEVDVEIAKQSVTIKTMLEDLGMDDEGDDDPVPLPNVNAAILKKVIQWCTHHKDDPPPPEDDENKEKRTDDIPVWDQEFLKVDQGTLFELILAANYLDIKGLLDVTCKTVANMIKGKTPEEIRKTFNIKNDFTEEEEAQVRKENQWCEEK
UniProt Q01844: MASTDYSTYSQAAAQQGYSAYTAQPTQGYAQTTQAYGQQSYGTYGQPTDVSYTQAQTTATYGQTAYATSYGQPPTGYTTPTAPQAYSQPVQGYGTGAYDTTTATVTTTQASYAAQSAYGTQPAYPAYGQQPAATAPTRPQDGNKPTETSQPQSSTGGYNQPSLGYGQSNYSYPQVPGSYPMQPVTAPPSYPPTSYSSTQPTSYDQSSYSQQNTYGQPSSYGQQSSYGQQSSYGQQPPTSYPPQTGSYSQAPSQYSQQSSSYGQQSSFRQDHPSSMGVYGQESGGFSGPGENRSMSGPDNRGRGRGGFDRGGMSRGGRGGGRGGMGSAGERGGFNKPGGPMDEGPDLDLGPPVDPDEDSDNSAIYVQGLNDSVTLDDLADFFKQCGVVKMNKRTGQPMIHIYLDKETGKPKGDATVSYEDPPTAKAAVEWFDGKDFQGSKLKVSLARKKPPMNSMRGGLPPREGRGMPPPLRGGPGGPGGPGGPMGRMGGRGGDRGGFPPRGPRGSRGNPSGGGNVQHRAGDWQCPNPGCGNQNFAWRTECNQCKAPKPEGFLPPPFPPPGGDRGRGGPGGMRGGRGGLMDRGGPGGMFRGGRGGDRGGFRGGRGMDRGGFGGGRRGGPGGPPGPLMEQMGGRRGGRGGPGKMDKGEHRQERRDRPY
UniProt Q12834: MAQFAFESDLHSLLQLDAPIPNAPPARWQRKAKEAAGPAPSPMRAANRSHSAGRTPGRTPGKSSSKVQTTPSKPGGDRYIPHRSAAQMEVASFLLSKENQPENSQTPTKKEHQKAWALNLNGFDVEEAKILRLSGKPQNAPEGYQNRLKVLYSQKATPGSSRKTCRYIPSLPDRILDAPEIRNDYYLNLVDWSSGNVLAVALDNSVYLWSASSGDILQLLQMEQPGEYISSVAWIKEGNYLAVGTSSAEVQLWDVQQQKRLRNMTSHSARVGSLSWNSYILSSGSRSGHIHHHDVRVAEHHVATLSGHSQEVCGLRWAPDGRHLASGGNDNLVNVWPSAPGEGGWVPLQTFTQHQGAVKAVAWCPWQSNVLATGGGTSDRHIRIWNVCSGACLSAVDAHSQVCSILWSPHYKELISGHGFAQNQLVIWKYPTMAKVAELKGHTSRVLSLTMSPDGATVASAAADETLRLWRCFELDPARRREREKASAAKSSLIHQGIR
UniProt P09874: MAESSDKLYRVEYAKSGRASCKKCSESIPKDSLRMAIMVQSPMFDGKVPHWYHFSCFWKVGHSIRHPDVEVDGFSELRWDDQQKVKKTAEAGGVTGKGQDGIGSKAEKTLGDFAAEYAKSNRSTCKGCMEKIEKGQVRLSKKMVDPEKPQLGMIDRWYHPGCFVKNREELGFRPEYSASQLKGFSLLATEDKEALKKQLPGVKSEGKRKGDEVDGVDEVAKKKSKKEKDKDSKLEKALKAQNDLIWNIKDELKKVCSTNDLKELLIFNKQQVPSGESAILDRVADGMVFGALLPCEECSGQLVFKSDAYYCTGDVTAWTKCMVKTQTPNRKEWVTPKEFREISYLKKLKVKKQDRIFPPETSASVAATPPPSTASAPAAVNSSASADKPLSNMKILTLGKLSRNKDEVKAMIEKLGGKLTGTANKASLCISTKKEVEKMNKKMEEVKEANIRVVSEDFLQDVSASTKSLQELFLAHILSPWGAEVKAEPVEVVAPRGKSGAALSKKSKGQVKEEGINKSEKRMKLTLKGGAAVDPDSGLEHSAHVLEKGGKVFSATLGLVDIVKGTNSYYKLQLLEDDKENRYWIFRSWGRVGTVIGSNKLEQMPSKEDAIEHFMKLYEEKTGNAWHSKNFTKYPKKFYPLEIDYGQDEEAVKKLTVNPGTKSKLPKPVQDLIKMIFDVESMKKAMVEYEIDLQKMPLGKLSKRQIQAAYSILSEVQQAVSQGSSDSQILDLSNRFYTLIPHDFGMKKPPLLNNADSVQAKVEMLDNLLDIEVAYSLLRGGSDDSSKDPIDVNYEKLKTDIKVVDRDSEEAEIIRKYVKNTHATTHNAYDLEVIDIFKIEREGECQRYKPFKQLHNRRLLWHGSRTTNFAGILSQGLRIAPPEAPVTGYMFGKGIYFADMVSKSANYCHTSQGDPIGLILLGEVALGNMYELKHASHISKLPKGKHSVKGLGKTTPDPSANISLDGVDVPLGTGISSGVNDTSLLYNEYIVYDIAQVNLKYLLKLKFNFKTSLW
UniProt Q9UKV8: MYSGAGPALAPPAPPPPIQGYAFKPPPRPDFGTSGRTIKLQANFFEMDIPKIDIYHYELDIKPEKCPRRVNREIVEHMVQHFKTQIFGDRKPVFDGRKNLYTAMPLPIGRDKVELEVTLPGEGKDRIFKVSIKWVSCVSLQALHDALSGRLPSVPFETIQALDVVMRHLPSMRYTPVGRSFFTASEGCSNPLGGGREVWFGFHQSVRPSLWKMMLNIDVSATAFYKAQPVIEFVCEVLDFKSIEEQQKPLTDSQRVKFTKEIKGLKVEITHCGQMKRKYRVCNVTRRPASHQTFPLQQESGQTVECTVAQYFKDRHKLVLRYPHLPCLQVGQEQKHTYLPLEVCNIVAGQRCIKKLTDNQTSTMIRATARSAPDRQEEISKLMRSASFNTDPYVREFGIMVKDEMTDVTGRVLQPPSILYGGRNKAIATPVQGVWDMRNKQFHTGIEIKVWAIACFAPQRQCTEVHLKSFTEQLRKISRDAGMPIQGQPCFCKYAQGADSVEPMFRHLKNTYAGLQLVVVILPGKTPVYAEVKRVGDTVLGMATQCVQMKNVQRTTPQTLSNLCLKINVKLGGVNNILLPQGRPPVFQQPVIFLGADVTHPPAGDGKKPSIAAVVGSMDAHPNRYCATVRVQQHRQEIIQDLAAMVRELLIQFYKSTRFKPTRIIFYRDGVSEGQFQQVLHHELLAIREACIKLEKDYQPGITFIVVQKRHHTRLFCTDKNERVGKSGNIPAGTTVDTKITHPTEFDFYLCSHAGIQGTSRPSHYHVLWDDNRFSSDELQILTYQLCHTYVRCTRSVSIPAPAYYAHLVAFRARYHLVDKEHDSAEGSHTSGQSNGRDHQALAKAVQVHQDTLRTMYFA

Biological target: Flag-BCL11b (B-cell lymphoma/leukemia 11B) (UniProt Q9C0K0)
Assay: affinity purification with mass spectrometry

Substance	binding
KMT2A (from UniProt Q03164 1-3969)	binds
SMN1 (from UniProt Q16637 1-294)	binds
CDK6 (from UniProt Q00534 1-326)	binds
TDP-43 (from UniProt Q13148 1-414)	binds
BRCA2 (from UniProt P51587 1-3418)	binds
DCAF1 (from UniProt Q9Y4B6 1-1507)	binds
CDC7 (from UniProt O00311 1-574)	binds
FUS (from UniProt P35637 1-526)	binds

The remaining lines, values ahead:

binding	Substance
binds	CDK9 (from UniProt P50750 1-372)
binds	SKP1 (from UniProt P63208 1-163)
binds	EWSR1 (from UniProt Q01844 1-656)
binds	CDC20 (from UniProt Q12834 1-499)
binds	PARP1 (from UniProt P09874 1-1014)
binds	Ago2 (from UniProt Q9UKV8 1-859)
